From US20070232789A1
Results are given in words; binding and its absence hold for the method and conditions named. Binding calls can cover weak binding; strength is not graded here.

The chains behind the UniProt entries cited, without tags or fusion partners. Where a name states a change or a piece, a line headed by the entry shows the natural chain unless it says otherwise.
UniProt Q07954: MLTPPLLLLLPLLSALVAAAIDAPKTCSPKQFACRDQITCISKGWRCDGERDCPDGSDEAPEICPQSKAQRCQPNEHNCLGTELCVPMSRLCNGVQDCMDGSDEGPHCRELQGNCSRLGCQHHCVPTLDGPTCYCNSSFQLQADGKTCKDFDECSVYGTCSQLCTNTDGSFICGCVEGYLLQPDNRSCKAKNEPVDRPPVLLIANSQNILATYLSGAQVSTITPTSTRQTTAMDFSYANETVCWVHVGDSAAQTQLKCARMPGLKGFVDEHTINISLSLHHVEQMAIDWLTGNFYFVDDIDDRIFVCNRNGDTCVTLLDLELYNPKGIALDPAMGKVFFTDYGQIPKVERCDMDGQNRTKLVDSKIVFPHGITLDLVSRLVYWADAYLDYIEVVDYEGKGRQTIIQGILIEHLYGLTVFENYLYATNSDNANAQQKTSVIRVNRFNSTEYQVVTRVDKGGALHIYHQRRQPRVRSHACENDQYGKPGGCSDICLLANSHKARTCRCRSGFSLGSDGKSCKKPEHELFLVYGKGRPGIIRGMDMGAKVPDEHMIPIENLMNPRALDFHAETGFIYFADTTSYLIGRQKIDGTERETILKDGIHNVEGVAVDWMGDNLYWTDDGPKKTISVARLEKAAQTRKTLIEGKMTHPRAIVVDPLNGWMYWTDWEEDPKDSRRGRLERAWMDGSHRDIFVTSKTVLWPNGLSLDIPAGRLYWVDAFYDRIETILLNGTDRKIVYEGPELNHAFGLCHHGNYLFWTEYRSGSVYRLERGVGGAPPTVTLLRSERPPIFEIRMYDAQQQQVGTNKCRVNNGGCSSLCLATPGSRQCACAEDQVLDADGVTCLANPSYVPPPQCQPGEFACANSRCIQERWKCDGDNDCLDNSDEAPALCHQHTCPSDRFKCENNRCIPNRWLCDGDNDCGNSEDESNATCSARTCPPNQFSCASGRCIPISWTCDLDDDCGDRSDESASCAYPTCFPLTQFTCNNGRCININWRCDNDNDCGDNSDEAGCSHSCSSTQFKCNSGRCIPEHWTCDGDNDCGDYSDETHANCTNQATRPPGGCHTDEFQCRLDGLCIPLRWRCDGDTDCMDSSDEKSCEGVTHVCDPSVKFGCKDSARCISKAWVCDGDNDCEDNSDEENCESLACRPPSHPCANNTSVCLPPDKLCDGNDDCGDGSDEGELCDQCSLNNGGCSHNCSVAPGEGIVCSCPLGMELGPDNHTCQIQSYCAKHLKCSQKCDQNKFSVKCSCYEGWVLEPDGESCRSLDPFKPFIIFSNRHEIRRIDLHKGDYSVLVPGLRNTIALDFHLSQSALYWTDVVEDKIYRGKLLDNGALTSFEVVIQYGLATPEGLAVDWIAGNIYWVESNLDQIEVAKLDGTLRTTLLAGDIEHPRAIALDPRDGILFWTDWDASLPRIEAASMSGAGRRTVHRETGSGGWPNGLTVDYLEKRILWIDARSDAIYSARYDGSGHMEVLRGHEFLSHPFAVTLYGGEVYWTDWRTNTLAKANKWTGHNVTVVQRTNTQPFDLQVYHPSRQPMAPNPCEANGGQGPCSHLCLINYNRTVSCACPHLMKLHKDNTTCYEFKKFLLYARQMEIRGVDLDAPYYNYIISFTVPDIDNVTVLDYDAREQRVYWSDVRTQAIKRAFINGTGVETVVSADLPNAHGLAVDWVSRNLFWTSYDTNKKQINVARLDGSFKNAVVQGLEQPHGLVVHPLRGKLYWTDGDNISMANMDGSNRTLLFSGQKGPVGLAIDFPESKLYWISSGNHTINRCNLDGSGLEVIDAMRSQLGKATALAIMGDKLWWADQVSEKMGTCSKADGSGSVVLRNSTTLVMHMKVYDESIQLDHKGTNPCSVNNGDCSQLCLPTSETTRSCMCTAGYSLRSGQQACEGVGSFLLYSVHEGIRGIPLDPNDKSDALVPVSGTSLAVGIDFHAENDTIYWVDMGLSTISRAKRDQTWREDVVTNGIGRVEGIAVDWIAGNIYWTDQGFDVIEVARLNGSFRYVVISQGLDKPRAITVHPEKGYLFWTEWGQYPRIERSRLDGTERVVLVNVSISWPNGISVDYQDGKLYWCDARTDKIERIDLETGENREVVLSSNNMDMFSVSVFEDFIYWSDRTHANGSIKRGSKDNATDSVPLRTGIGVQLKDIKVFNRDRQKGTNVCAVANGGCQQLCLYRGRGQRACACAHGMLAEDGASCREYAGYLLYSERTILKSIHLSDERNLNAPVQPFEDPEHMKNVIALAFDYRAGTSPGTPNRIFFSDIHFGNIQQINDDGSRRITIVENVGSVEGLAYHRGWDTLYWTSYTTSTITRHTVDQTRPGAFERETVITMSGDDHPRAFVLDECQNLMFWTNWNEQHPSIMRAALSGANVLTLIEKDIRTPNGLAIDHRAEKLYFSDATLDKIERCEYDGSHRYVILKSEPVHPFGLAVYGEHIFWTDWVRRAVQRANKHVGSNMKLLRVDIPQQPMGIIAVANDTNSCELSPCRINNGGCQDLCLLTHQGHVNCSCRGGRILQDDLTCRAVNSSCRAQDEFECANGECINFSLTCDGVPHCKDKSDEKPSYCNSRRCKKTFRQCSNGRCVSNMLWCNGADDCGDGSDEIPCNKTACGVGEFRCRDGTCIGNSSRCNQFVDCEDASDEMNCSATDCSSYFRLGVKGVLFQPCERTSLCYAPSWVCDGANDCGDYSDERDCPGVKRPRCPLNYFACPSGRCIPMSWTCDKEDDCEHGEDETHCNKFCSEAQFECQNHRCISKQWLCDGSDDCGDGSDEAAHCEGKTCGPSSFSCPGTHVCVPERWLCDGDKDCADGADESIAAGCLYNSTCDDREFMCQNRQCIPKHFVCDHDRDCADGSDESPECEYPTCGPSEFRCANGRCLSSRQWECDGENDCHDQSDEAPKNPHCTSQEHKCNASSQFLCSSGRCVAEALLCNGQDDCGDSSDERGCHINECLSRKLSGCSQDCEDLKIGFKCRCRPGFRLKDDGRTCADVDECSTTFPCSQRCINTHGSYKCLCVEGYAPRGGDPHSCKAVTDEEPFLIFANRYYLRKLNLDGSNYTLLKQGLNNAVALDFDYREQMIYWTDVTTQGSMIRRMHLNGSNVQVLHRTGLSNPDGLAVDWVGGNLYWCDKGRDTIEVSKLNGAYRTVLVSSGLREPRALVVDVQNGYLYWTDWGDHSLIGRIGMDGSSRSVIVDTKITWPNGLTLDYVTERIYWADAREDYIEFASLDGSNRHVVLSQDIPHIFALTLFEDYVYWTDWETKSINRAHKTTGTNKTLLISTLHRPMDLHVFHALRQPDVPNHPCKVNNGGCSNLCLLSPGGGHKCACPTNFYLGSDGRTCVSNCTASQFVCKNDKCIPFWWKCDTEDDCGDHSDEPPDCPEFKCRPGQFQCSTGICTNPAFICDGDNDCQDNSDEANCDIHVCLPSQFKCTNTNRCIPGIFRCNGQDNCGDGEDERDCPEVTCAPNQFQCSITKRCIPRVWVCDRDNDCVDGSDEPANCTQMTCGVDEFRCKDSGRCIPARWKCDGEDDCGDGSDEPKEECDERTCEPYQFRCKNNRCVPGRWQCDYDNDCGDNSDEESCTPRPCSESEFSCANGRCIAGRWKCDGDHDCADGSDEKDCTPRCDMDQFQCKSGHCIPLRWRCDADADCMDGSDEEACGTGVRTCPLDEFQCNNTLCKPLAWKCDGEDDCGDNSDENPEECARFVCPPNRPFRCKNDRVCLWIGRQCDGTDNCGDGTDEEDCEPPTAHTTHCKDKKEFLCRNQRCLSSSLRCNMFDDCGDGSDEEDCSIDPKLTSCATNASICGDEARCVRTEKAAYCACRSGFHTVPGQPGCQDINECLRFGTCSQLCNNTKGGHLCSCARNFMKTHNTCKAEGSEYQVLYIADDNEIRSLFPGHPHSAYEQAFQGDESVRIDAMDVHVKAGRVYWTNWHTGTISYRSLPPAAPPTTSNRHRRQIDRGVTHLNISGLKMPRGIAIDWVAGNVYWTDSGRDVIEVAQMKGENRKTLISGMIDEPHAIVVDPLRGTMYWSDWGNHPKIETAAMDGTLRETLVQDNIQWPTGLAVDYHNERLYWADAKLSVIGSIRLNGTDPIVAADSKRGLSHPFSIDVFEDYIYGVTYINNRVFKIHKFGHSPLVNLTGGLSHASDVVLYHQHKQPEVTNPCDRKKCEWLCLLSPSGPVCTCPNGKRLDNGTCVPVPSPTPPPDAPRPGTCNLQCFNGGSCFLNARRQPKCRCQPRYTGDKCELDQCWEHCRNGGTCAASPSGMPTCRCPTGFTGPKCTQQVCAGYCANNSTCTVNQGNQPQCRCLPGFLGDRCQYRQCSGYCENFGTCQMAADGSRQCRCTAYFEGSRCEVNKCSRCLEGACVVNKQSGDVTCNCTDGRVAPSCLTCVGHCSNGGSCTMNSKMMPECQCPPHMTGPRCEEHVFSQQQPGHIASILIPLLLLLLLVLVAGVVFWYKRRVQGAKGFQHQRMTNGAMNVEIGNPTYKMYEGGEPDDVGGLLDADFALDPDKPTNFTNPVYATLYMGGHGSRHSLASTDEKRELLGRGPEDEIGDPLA

Target: low-density lipoprotein receptor-related protein (LRP), purified (human) (UniProt Q07954)
Experiment: competition: peptide 484-509 varied, competitor 125I-fVIII, LRP-coated microtiter wells

binding: binds
Binder: RPLYSRRLPKGVKHLKDFPILPGEIF [synthetic A2 domain peptide 484-509]
